Some of the results follow. Small differences around the control level are noise.

By UniProt entry, the sequences of proteins in these tests, tags left out. Where a name states a change or a piece, a line headed by the entry shows the natural chain unless it says otherwise.
UniProt Q8BUV6: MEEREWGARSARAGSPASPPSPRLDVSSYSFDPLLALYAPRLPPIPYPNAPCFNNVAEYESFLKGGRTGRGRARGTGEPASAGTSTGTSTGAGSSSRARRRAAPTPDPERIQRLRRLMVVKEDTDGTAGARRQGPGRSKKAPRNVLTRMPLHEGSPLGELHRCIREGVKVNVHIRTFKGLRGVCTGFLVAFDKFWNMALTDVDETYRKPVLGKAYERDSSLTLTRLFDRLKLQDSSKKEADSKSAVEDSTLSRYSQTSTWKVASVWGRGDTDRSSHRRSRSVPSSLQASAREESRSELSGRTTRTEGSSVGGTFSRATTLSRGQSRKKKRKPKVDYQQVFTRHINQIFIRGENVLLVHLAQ
UniProt Q8BQP8: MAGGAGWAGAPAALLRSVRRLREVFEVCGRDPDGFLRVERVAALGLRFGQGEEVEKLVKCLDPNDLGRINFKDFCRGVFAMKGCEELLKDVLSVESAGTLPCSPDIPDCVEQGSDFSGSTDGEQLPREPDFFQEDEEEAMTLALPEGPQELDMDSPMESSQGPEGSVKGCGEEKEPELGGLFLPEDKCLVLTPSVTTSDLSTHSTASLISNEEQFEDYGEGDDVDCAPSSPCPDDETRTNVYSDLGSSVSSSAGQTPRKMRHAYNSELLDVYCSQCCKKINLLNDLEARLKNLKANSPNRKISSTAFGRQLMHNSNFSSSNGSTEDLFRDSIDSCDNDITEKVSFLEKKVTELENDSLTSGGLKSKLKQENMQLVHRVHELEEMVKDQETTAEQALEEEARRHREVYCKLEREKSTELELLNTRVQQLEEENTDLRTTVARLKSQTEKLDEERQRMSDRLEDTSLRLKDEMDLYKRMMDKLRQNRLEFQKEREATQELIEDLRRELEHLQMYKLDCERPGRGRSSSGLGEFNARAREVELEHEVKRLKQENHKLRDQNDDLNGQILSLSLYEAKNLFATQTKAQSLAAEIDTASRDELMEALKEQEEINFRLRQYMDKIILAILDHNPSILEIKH
UniProt Q8BU27: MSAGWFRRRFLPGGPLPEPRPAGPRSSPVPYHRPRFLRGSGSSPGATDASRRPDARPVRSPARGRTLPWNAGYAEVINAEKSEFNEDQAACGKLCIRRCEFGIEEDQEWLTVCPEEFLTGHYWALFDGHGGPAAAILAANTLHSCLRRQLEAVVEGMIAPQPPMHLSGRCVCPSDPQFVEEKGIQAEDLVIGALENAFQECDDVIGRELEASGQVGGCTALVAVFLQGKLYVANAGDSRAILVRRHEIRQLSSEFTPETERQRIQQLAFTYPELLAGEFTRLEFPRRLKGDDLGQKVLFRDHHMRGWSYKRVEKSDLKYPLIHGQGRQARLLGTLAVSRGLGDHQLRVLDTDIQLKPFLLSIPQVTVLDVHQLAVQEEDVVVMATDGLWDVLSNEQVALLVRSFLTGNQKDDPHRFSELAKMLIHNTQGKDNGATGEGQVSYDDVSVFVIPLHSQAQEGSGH
UniProt Q8BRB7, whole entry: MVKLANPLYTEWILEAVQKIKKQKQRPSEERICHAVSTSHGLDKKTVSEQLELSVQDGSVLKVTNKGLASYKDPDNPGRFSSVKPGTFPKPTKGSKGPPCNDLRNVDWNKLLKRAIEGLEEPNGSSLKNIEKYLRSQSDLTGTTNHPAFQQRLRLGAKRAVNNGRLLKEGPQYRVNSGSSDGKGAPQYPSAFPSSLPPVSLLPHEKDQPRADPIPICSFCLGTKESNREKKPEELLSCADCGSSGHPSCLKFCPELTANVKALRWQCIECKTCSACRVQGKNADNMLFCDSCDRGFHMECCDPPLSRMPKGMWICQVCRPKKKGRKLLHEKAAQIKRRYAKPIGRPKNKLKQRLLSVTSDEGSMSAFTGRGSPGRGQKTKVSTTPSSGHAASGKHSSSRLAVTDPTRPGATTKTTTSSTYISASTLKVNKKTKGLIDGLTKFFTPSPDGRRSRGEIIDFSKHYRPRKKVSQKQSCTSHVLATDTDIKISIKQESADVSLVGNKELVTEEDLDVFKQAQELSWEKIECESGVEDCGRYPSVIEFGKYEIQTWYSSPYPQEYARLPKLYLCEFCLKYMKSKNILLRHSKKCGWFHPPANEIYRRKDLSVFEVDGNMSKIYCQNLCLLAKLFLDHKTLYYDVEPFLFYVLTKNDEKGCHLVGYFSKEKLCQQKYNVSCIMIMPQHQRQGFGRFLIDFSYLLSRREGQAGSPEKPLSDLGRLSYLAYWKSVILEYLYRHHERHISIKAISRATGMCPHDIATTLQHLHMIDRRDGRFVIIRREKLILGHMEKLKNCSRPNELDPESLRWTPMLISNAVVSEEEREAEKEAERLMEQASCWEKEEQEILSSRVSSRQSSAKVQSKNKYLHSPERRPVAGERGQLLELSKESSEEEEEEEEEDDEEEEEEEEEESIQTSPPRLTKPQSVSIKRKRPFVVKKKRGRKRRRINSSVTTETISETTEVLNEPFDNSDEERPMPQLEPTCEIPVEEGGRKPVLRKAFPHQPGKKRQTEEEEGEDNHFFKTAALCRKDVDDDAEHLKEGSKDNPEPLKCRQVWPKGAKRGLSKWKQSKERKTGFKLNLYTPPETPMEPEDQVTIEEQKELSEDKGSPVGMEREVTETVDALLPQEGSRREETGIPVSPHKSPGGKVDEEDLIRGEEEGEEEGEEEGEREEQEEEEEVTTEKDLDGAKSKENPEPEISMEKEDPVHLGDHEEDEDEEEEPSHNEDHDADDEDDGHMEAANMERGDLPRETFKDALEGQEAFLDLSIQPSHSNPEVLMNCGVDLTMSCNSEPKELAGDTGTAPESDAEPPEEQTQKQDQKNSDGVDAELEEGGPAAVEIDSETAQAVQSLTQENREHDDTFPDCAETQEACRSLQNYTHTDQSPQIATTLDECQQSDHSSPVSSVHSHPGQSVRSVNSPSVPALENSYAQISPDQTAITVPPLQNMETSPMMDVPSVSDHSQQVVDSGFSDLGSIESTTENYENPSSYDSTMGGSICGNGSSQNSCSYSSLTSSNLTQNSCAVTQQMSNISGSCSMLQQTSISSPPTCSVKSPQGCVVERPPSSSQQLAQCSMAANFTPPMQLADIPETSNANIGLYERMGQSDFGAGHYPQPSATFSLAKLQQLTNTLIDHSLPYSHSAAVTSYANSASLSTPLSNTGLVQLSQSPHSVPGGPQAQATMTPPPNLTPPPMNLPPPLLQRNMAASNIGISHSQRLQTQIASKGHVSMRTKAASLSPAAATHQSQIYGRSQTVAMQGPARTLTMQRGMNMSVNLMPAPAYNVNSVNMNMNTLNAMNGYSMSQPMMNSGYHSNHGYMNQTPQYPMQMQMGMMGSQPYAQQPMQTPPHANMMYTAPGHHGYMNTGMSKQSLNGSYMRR
UniProt Q8BKX7: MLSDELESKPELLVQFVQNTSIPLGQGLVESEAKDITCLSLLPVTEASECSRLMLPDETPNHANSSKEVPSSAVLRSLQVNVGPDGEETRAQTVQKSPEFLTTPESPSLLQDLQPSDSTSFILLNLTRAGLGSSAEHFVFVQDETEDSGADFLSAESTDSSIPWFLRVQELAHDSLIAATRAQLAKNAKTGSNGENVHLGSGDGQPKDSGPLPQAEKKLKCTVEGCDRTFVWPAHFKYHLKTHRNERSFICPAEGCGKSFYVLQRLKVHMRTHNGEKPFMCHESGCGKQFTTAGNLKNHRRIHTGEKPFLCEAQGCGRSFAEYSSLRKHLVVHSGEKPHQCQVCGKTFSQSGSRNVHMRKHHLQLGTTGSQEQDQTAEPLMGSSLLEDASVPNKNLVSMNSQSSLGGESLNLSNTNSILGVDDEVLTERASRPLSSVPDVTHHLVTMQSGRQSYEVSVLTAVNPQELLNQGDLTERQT
UniProt Q8BTE0: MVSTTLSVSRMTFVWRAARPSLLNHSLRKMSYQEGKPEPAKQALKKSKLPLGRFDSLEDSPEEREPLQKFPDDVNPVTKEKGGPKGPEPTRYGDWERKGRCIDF
UniProt Q8BTM8, whole entry: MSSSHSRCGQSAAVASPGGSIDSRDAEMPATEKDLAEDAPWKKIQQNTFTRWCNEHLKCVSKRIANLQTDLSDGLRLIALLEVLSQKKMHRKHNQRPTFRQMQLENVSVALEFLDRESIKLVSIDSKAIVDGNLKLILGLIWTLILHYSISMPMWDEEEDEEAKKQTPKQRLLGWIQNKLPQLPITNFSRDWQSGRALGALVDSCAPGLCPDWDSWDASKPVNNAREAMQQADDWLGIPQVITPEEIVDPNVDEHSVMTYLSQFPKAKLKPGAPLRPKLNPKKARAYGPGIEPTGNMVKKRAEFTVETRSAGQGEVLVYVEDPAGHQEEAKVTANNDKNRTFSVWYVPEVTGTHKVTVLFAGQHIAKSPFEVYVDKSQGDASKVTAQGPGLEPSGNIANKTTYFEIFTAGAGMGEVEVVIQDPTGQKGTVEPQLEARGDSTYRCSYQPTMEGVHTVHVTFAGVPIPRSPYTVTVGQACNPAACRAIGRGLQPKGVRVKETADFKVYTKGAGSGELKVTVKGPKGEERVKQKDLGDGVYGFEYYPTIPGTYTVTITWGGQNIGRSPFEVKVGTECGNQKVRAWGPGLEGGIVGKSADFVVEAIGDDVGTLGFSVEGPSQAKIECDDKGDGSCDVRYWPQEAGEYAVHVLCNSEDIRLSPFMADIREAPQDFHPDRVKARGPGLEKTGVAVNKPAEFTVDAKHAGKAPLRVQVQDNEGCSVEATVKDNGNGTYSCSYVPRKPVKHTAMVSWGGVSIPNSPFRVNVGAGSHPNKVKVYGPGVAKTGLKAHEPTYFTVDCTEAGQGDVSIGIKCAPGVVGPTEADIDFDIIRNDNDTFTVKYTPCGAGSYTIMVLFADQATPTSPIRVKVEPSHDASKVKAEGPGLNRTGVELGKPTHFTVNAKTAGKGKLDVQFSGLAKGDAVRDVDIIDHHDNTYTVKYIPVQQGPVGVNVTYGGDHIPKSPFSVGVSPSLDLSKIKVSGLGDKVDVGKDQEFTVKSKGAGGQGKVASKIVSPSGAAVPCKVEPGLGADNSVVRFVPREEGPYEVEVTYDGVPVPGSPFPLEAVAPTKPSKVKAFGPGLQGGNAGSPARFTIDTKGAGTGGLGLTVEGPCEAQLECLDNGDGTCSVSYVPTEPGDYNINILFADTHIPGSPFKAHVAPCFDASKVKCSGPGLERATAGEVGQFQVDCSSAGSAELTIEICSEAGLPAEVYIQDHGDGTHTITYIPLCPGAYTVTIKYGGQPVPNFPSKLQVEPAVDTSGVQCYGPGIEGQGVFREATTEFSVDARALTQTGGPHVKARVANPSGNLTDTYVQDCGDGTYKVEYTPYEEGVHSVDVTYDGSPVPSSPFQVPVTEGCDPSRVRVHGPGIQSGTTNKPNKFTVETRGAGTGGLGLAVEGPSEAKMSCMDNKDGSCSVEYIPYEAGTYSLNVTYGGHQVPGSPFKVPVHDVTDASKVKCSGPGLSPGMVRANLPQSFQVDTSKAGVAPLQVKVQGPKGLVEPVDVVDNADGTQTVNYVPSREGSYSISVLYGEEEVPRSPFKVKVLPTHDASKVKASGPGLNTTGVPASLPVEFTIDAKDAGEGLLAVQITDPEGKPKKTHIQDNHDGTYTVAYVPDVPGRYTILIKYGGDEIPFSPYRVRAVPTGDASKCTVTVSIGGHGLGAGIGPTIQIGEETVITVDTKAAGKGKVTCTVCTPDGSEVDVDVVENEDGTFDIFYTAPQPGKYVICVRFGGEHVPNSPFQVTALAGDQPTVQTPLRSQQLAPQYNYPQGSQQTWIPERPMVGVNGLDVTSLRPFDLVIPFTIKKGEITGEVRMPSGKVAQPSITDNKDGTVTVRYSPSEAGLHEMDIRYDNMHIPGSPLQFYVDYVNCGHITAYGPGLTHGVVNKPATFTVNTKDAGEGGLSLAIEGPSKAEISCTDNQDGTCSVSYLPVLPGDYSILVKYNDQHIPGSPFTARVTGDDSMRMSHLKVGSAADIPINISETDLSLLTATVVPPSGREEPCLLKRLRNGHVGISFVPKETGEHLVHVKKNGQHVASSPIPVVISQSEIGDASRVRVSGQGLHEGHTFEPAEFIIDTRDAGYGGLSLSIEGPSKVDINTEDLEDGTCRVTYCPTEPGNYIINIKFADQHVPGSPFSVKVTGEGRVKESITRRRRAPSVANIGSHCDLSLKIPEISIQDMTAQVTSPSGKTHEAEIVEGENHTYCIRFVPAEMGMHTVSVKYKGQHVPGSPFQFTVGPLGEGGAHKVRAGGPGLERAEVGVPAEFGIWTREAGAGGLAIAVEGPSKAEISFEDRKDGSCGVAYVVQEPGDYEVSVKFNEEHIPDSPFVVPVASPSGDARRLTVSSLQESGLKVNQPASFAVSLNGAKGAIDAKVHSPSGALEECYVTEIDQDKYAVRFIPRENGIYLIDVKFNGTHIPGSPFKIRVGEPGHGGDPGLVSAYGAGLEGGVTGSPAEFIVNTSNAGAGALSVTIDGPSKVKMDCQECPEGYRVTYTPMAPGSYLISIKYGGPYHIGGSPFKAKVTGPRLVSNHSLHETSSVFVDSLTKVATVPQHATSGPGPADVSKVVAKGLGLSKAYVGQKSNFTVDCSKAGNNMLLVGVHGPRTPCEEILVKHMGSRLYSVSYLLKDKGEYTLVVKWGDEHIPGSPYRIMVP

Compound in the assay: CN[C@@H]1C[C@H]2O[C@@](C)([C@@H]1OC)n1c3ccccc3c3c4c(c5c6ccccc6n2c5c31)C(=O)NC4 [staurosporine]
The assay can be described thus: log2 fold change of tryptic peptide abundance, ligand vs vehicle (limited proteolysis) (log2 ratio); higher = more trypsin-susceptible (destabilized). The conditions noted are these: ligand concentration: 20 uM; sample: mouse liver crude lysate; replicate design: treated separately.
For the target “UniProt Q8BI71 (peptide sequence: VAEVETER, peptide start residue: 227)”, the log2 fold change was -0.307.

Consider “UniProt Q8BP74 (peptide sequence: LKADVLEDLR, peptide start residue: 312)”, for which the log2 fold change was 0.534. As to “UniProt Q8BIX3 (peptide sequence: IYIDRFEDLQK, peptide start residue: 62)”, the log2 fold change worked out at 0.14. In the case of “UniProt Q8BQB4 (peptide sequence: RLDFLAK, peptide start residue: 416)” it was 0.109. The value for “UniProt Q8BUV6 (peptide sequence: YSQTSTWK, peptide start residue: 254)” was 0.752. In the case of “UniProt Q8BIF2 (peptide sequence: KIEVNNATAR, peptide start residue: 248)” it was 0.339; in that of “UniProt Q8BSF4 (peptide sequence: NLSEFFR, peptide start residue: 161)”, 0.278; in that of “UniProt Q8BQP8 (peptide sequence: SSSGLGEFNAR, peptide start residue: 524)”, -0.644. Take “UniProt Q8BK72 (peptide sequence: EKLPACEAEDLATYEQK, peptide start residue: 363)”: the log2 fold change was -0.421.

For the target “UniProt Q8BS39 (peptide sequence: IKGLNEEVTSK, peptide start residue: 88)”, the log2 fold change was determined as 0.207. Take “UniProt Q8BJ05 (peptide sequence: KMECPFYHPK, peptide start residue: 689)”: the log2 fold change was 0.404. In the case of “UniProt Q8BK58 (peptide sequence: MLVCTLK, peptide start residue: 290)” it was 0.229; in that of “UniProt Q8BU27 (peptide sequence: GSGSSPGATDASR, peptide start residue: 39)”, 0.0093; in that of “UniProt Q8BRB7 (peptide sequence: ICHAVSTSHGLDKK, peptide start residue: 32)”, 0.302.

As for “UniProt Q8BL80 (peptide sequence: YAMLEIKLR, peptide start residue: 653)”, the log2 fold change is -0.017. The value for “UniProt Q8BKW4 (peptide sequence: KFYACSACR, peptide start residue: 59)” was 0.162; that for “UniProt Q8BP71 (peptide sequence: EKLHGTVVEGR, peptide start residue: 237)” was 0.325.

In the case of “UniProt Q8BKX7 (peptide sequence: VQELAHDSLIAATR, peptide start residue: 168)”, the log2 fold change worked out at 0.421. In the case of “UniProt Q8BR65 (peptide sequence: RPNDPVPIPDKR, peptide start residue: 188)” it was 0.178. In the case of “UniProt Q8BP47 (peptide sequence: MNYSDAIEWLKEHDVK, peptide start residue: 402)” it was 0.2.

For “UniProt Q8BUL6 (peptide sequence: LSLQESQLPK, peptide start residue: 374)”, the log2 fold change is -0.298. In the case of “UniProt Q8BTE0 (peptide sequence: YGDWERK, peptide start residue: 92)” it was 0.309; in that of “UniProt Q8BTM8 (peptide sequence: FNGTHIPGSPFK, peptide start residue: 2406)”, 0.482; in that of “UniProt Q8BKE9 (peptide sequence: EDNQEIASMER, peptide start residue: 314)”, -0.178.

Source of the values: the supplement of paper PMC12819154, “High-throughput peptide-centric local stability assay extends protein–ligand identification to membrane proteins, tissues and bacteria” (Nature Structural & Molecular Biology, 2025).
